Source: patent US20120282646A1, “METHOD FOR ACTIVATING A NATURAL KILLER CELL BY ADJUSTING THE EXPRESSION OF THE SOCS2 GENE” (Korea Research Institute of Bioscience and Biotechnology, priority 2009, published 2012)
Results are given in words; binding and its absence hold for the method and conditions named. Some binding calls cover weakened binding; strength is not graded here.

Amino acid sequences for entries named in this document (tags omitted).
UniProt Q14289: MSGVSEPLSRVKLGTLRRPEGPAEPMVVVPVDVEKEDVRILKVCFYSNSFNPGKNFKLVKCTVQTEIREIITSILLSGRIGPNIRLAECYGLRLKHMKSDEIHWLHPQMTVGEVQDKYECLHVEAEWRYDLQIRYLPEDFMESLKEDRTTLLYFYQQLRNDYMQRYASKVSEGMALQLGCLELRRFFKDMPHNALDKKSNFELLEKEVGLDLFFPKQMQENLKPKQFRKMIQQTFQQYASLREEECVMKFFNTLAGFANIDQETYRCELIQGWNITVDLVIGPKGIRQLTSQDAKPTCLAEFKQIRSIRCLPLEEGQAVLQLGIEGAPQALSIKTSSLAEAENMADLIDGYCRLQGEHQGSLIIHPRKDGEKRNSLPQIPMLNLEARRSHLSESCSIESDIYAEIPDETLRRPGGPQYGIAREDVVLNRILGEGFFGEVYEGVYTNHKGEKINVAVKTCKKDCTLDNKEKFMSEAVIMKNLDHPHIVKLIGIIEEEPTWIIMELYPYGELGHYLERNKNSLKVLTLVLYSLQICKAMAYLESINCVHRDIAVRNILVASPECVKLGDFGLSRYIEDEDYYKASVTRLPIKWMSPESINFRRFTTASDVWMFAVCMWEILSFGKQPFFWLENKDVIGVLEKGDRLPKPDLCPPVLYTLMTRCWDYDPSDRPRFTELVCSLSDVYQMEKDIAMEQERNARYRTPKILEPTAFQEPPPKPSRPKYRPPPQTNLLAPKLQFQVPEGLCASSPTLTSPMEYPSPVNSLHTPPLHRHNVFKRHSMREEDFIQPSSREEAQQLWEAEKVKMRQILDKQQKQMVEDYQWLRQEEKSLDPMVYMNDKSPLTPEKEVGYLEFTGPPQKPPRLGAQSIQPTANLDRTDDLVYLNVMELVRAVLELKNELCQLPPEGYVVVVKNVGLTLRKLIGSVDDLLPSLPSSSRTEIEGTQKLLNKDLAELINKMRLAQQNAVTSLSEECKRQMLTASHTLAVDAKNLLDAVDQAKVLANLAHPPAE
UniProt O14508: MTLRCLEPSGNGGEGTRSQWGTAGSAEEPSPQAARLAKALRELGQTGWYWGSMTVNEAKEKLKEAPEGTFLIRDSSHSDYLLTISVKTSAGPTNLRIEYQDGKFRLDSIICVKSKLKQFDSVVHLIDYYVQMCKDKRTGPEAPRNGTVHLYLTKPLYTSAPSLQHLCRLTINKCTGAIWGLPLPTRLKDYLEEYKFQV

Legend:
[1] = molecular target: Pyk2 protein (yeast two-hybrid screening) (UniProt Q14289); assay: yeast two-hybrid screening
[2] = molecular target: Pyk2 expressed endogenously in NK-92 cells (human) (UniProt Q14289); assay: endogenous immunoprecipitation with anti-SOCS2 from NK-92 lysate, Western blot with anti-Pyk2

Q: Which binding [1] does the source give for “SOCS2 protein (yeast two-hybrid screening) (from UniProt O14508 1-198)” here?
A: binds

Q: For “SOCS2 expressed endogenously in NK-92 cells (from UniProt O14508 1-198)”, which binding [2] is on record?
A: binds
